These are literature values, as cited in patent publication US20250345461A1, “METHOD FOR REPAIRING HAIR CYCLE-RELATED GENES AND METHOD FOR TREATING HAIR CYCLE-RELATED DISEASES USING MIR-520D-5P” (LIVIUS PTE. LTD., priority 2021, published 2025).

The conditions of the data set: Irritable bowel syndrome/pre-anesthesia treatment/bronchiolitis obstruction.

Regarding `C[N+]1(C)CCC(OC(=O)C(O)(c2ccccc2)C2CCCC2)C1` (stereo not shown) [Glycopyrrolate], the “Maximum effective blood concentration at the time of administration or concentration in an external preparation in known indications” value is “Administration: 800 pg/mL”.
